Laboratory results: the supplement of paper PMC11732987, “Enantioselective OTUD7B fragment discovery through chemoproteomics screening and high-throughput optimisation” (Communications Chemistry, 2025)
This is one part of the list. The data scatter; read single values as rough.

By UniProt entry, the sequences of proteins in these tests, tags left out. Where a name states a change or a piece, a line headed by the entry shows the natural chain unless it says otherwise.
UniProt Q8WXW3: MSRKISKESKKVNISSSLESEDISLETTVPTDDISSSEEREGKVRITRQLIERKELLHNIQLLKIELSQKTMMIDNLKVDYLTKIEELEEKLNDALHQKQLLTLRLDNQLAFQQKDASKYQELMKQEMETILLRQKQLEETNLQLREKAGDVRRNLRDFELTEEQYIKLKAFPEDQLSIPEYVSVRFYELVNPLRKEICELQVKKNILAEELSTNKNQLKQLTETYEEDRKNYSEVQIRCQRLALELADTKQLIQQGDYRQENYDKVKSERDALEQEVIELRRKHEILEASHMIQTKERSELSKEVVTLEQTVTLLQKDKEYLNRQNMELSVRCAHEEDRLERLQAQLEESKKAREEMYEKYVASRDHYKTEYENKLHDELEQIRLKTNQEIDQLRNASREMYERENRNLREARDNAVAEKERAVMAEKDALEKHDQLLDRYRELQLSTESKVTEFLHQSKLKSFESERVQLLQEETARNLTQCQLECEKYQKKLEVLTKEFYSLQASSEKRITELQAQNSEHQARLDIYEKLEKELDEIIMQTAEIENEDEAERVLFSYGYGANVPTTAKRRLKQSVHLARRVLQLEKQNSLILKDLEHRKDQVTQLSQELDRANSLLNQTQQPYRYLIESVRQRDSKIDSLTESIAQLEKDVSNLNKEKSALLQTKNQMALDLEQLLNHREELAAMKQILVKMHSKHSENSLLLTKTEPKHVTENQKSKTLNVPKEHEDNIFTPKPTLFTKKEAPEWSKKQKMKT
UniProt Q16513: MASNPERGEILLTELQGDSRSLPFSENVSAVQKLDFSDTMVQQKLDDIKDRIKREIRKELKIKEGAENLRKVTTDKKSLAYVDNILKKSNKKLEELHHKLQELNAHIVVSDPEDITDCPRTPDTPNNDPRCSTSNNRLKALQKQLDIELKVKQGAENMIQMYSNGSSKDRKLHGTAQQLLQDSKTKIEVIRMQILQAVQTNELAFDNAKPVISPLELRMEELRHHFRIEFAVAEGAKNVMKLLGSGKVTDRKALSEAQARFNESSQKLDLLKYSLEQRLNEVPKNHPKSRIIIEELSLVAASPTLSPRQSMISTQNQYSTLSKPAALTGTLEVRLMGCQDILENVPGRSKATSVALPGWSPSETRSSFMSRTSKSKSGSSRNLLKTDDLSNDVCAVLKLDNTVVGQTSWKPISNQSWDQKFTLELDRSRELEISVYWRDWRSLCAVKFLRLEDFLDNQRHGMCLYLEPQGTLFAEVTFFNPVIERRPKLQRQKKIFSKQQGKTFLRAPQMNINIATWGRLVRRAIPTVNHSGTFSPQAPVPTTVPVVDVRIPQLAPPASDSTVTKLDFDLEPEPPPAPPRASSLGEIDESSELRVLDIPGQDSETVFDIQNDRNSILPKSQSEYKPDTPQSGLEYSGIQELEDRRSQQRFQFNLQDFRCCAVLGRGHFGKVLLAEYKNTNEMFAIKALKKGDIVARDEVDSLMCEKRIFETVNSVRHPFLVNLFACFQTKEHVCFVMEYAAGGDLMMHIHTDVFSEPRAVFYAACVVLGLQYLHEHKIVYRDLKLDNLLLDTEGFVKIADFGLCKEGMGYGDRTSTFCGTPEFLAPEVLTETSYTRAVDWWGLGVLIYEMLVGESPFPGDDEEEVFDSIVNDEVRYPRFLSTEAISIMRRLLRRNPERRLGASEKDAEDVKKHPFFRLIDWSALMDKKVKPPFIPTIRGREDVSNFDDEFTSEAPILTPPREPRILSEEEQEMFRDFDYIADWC
UniProt Q6IQ23: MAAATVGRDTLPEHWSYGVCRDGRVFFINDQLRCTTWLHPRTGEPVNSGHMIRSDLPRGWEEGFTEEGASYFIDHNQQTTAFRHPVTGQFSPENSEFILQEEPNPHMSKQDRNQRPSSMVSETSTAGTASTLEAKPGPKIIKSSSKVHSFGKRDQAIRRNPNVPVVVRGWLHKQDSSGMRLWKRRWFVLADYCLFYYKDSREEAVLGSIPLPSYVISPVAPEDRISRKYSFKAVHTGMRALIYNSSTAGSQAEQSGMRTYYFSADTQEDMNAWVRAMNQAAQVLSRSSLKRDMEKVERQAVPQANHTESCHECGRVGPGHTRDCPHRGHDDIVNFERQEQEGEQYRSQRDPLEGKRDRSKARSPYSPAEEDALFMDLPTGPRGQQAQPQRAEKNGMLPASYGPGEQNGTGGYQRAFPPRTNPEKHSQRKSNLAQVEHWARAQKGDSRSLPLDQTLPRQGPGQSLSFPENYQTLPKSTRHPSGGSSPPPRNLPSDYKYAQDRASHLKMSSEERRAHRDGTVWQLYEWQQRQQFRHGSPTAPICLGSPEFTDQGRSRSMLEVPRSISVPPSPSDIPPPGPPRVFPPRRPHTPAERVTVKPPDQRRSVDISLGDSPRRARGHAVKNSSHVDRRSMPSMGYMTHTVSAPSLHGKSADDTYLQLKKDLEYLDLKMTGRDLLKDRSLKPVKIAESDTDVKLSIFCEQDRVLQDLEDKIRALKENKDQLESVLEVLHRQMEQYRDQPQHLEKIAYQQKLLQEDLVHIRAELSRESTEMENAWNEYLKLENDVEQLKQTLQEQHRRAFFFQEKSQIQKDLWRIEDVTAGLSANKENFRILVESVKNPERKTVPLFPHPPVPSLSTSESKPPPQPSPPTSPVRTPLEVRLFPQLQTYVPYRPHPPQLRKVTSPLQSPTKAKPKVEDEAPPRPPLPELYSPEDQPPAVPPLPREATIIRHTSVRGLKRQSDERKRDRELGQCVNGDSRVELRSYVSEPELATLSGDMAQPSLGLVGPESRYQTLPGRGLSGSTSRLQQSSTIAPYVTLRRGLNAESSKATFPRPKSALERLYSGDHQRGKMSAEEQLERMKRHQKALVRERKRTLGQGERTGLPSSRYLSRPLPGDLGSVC
UniProt Q9UIW2: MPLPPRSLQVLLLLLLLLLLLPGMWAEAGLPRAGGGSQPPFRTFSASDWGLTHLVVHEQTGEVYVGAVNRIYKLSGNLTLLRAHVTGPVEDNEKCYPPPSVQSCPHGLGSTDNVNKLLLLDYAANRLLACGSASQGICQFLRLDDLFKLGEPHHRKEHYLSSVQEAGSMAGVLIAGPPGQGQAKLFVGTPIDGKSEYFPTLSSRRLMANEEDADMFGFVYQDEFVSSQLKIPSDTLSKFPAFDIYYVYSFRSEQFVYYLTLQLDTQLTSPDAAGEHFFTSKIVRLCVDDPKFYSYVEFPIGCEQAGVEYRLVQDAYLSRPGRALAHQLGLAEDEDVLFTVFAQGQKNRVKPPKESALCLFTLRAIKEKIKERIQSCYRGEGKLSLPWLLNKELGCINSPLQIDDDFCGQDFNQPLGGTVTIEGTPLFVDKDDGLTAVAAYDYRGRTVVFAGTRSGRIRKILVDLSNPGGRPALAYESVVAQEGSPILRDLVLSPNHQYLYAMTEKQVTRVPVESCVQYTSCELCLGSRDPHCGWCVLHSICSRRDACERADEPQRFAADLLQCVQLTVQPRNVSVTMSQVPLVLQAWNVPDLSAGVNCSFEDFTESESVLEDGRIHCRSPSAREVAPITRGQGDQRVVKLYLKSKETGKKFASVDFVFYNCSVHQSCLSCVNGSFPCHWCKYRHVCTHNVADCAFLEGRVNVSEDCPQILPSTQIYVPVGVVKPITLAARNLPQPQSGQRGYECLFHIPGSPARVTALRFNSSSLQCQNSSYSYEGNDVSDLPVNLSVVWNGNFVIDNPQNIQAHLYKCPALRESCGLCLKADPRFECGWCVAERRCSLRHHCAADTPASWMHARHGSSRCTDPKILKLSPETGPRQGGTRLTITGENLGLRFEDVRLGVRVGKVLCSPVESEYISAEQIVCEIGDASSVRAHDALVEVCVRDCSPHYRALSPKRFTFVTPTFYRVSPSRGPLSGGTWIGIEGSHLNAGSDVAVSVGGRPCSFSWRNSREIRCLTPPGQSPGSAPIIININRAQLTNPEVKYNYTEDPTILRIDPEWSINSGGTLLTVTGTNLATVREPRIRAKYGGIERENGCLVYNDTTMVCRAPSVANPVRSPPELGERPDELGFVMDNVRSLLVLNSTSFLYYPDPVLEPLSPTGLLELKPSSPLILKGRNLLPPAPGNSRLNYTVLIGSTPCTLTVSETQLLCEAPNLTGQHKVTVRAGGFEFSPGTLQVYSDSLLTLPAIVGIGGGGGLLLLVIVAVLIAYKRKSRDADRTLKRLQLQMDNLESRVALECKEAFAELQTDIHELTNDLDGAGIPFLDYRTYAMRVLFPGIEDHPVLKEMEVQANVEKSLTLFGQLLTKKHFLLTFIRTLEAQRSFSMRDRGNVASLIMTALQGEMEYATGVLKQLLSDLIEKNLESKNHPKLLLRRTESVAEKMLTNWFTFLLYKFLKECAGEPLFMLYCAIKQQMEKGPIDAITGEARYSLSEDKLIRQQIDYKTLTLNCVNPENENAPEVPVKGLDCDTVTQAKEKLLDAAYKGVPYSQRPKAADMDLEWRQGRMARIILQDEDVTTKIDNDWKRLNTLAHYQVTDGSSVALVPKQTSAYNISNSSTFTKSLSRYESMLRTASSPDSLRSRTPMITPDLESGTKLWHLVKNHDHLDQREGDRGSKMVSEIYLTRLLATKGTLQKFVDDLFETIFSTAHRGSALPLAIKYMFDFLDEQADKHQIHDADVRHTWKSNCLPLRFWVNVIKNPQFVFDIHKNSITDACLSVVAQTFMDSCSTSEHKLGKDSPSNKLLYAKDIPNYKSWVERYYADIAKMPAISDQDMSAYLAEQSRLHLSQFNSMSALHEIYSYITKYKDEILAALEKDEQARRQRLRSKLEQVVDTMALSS
UniProt Q9GZS1: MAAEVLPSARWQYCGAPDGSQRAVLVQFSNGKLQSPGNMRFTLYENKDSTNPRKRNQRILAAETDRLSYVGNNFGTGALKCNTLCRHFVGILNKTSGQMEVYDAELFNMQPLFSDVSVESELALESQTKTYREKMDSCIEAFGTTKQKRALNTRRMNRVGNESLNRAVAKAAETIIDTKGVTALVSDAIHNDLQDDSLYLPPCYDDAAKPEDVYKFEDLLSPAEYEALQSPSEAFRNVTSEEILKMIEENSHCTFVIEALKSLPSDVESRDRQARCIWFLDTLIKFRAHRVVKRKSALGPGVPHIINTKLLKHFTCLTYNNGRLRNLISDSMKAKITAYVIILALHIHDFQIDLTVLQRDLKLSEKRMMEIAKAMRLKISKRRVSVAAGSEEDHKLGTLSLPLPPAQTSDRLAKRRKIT
UniProt P29590: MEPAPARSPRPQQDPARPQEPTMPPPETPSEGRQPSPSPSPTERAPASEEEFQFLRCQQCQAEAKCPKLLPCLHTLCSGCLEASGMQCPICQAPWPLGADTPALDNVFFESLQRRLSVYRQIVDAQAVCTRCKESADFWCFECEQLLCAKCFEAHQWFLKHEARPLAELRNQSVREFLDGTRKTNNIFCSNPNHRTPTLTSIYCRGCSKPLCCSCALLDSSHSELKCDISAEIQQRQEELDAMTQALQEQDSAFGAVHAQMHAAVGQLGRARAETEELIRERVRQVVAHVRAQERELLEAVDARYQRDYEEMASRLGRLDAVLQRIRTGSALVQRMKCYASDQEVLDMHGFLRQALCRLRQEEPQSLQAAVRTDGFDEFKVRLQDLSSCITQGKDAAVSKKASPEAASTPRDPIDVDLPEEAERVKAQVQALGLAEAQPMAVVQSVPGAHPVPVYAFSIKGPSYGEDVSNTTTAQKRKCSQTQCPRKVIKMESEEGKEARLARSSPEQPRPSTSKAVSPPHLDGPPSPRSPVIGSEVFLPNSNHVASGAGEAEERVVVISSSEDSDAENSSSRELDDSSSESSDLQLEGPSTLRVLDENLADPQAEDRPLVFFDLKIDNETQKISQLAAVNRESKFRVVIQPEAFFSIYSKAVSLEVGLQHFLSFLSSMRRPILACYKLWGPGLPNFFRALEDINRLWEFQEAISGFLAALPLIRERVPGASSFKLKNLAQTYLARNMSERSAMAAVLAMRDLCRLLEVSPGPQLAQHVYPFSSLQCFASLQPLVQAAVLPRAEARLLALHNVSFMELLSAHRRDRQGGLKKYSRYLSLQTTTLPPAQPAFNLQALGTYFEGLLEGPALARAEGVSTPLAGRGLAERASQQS
UniProt Q8NBT0: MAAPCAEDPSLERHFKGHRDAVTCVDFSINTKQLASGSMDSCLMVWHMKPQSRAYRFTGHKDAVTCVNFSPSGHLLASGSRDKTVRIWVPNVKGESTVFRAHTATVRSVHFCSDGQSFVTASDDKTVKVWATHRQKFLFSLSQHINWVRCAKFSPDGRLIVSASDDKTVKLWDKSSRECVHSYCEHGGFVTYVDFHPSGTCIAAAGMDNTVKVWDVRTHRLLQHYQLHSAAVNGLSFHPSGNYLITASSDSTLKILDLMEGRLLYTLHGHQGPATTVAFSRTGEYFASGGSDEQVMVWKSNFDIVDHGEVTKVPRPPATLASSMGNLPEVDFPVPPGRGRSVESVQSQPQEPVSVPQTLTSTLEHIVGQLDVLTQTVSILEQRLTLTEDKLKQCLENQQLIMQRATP

compound: ClCC(=O)N[C@@H]1CCCc2ccccc12; experiment: log2 mean competition ratio of IA-DTB cysteine labelling (DMSO/compound) (log2 ratio); higher = stronger cysteine engagement by compound; details: 50 µM; treatment time: 4 h; cell line lysate: HEK293T
Procedure: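 IA-DTB competitive cysteine chemoproteomics in HEK293T RIPA lysate. Lysates were treated with compound 29 or 30 at 50 or 200 µM for 4 h, then IA-DTB (500 µM, 1 h), trypsin-digested, NeutrAvidin-enriched and analysed by diaPASEF. Competition ratio = intensity DMSO / intensity compound (n=4 treated, n=64 DMSO); binding: mean log2 CR ≥ 1 and p ≤ 0.05 plus QC filters. Target is the cysteine site.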

Target	log2 mean competition ratio
PIK3R4 C693 (UniProt Q99570)	-0.245
PHKB C280 (UniProt Q93100)	-0.198
POLE C1076 (UniProt Q07864)	-0.322
PIK3C3 C336 (UniProt Q8NEB9)	0.331
PMPCB C62 (UniProt O75439)	0.00662
PHF3 C885 (UniProt Q92576)	-0.102
PIBF1 C199 (UniProt Q8WXW3)	-0.289
PKN2 C394 (UniProt Q16513)	-0.289
PLIN3 C60 (UniProt O60664)	0.112
PLK1 C67 (UniProt P53350)	0.392
PLEKHA7 C972 (UniProt Q6IQ23)	-0.195
PLXNA1 C1525 (UniProt Q9UIW2)	0.0101
PKN2 C338 (UniProt Q16513)	0.229
PIKFYVE C161 (UniProt Q9Y2I7)	-0.193
POLR1E C138 (UniProt Q9GZS1)	-0.0721
PML C227 (UniProt P29590)	-0.203
POC1A C5 (UniProt Q8NBT0)	-0.484
POLR2A C1159	-0.0394
PIP4K2B C5 (UniProt P78356)	0.299
POLR1G C14	0.466

same assay, conditions: 200 µM; treatment time: 4 h; cell line lysate: HEK293T

Target	log2 mean competition ratio
PIK3R4 C693 (UniProt Q99570)	0.2
PHKB C280 (UniProt Q93100)	-0.427
POLE C1076 (UniProt Q07864)	0.112
PIK3C3 C336 (UniProt Q8NEB9)	0.086
PMPCB C62 (UniProt O75439)	-0.0247
PHF3 C885 (UniProt Q92576)	-0.0819
PIBF1 C199 (UniProt Q8WXW3)	-0.54
PKN2 C394 (UniProt Q16513)	0.0982
PLIN3 C60 (UniProt O60664)	0.124
PLK1 C67 (UniProt P53350)	0.0497
PLEKHA7 C972 (UniProt Q6IQ23)	-0.0331
PLXNA1 C1525 (UniProt Q9UIW2)	-0.11
PKN2 C338 (UniProt Q16513)	0.0559
PIKFYVE C161 (UniProt Q9Y2I7)	0.35
POLR1E C138 (UniProt Q9GZS1)	-0.0855
PML C227 (UniProt P29590)	0.029
POC1A C5 (UniProt Q8NBT0)	-0.275
POLR2A C1159	0.0409
PIP4K2B C5 (UniProt P78356)	-0.112
POLR1G C14	0.0913
